Laboratory results published in article PMC4150532.
Results are given in words; binding and its absence hold for the method and conditions named. Binding seen in cells or lysates may run through a third protein. A result given as binding can be weak or reduced; the word gives no strength. Sequences can lack the tags named with a protein.

T1: Elp1–GFP (GFP-tagged wild-type Elp1, largest subunit of the Elongator complex) (S. cerevisiae) (UniProt Q06706)
T1 sequence: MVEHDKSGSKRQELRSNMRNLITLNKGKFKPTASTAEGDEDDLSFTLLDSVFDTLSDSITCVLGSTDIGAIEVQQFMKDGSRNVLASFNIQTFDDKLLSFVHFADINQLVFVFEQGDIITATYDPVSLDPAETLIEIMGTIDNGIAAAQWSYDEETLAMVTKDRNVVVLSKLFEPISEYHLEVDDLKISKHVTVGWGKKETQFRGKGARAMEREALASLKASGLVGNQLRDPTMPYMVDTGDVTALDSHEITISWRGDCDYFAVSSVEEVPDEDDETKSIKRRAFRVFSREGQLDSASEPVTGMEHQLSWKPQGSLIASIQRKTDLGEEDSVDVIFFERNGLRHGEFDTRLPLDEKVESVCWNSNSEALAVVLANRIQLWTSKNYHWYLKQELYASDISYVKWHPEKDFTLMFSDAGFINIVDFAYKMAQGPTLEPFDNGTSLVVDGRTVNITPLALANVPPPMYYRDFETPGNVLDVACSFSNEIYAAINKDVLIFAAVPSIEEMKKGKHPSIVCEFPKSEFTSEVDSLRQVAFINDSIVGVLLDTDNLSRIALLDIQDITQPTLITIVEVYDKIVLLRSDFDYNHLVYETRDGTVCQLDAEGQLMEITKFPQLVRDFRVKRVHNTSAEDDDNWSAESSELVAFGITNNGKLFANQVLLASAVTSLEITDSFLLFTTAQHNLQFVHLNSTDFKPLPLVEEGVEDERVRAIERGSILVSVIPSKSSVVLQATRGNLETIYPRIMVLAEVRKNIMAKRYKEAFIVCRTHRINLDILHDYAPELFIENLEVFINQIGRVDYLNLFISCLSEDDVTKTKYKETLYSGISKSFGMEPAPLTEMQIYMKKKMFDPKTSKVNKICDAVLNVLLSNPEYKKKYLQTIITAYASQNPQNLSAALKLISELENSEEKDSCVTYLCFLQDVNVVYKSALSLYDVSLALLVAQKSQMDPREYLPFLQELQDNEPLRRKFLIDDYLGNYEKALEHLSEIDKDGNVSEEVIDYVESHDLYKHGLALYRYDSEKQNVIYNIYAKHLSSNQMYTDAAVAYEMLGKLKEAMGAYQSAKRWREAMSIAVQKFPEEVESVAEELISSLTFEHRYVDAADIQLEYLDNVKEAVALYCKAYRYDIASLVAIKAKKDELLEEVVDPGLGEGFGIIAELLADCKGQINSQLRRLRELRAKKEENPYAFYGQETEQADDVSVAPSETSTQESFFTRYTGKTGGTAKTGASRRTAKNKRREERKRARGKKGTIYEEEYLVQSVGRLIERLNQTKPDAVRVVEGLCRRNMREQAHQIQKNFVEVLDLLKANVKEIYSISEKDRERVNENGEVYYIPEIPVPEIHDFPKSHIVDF

B1: Elp3-3HA (HA-tagged Elp3 subunit of Elongator) (protein, UniProt Q02908 1-557)
chain: MARHGKGPKTNKKKLAPEKERFIQCCADITLELTDSLTSGTTREINLNGLITKYSKKYKLKQQPRLTDIINSIPDQYKKYLLPKLKAKPVRTASGIAVVAVMCKPHRCPHIAYTGNICVYCPGGPDSDFEYSTQSYTGYEPTSMRAIRARYDPYEQARGRVEQLKQLGHSIDKVEYVLMGGTFMSLPKEYREDFIVKLHNALSGFNGNDIDEAILYSQQSLTKCVGITIETRPDYCTQTHLDDMLKYGCTRLEIGVQSLYEDVARDTNRGHTVRSVCETFAVSKDAGYKVVSHMMPDLPNVGMERDIEQFKEYFENPDFRTDGLKIYPTLVIRGTGLYELWKTGRYKSYSANALVDLVARILALVPPWTRIYRVQRDIPMPLVTSGVDNGNLRELALARMKDLGTTCRDVRTREVGIQEVHHKVQPDQVELIRRDYYANGGWETFLSYEDPKKDILIGLLRLRKASKKYTYRKEFTSQRTSIVRELHVYGSVVPLHSRDPRKFQHQGFGTLLMEEAERIAKEEHGSEKISVISGVGVRNYYGKLGYELDGPYMSKRI
B2: Elp1–6HA (6HA-tagged wild-type Elp1 from YCplac111–ELP1–6HA) (protein, UniProt Q06706 1-1349)
chain: MVEHDKSGSKRQELRSNMRNLITLNKGKFKPTASTAEGDEDDLSFTLLDSVFDTLSDSITCVLGSTDIGAIEVQQFMKDGSRNVLASFNIQTFDDKLLSFVHFADINQLVFVFEQGDIITATYDPVSLDPAETLIEIMGTIDNGIAAAQWSYDEETLAMVTKDRNVVVLSKLFEPISEYHLEVDDLKISKHVTVGWGKKETQFRGKGARAMEREALASLKASGLVGNQLRDPTMPYMVDTGDVTALDSHEITISWRGDCDYFAVSSVEEVPDEDDETKSIKRRAFRVFSREGQLDSASEPVTGMEHQLSWKPQGSLIASIQRKTDLGEEDSVDVIFFERNGLRHGEFDTRLPLDEKVESVCWNSNSEALAVVLANRIQLWTSKNYHWYLKQELYASDISYVKWHPEKDFTLMFSDAGFINIVDFAYKMAQGPTLEPFDNGTSLVVDGRTVNITPLALANVPPPMYYRDFETPGNVLDVACSFSNEIYAAINKDVLIFAAVPSIEEMKKGKHPSIVCEFPKSEFTSEVDSLRQVAFINDSIVGVLLDTDNLSRIALLDIQDITQPTLITIVEVYDKIVLLRSDFDYNHLVYETRDGTVCQLDAEGQLMEITKFPQLVRDFRVKRVHNTSAEDDDNWSAESSELVAFGITNNGKLFANQVLLASAVTSLEITDSFLLFTTAQHNLQFVHLNSTDFKPLPLVEEGVEDERVRAIERGSILVSVIPSKSSVVLQATRGNLETIYPRIMVLAEVRKNIMAKRYKEAFIVCRTHRINLDILHDYAPELFIENLEVFINQIGRVDYLNLFISCLSEDDVTKTKYKETLYSGISKSFGMEPAPLTEMQIYMKKKMFDPKTSKVNKICDAVLNVLLSNPEYKKKYLQTIITAYASQNPQNLSAALKLISELENSEEKDSCVTYLCFLQDVNVVYKSALSLYDVSLALLVAQKSQMDPREYLPFLQELQDNEPLRRKFLIDDYLGNYEKALEHLSEIDKDGNVSEEVIDYVESHDLYKHGLALYRYDSEKQNVIYNIYAKHLSSNQMYTDAAVAYEMLGKLKEAMGAYQSAKRWREAMSIAVQKFPEEVESVAEELISSLTFEHRYVDAADIQLEYLDNVKEAVALYCKAYRYDIASLVAIKAKKDELLEEVVDPGLGEGFGIIAELLADCKGQINSQLRRLRELRAKKEENPYAFYGQETEQADDVSVAPSETSTQESFFTRYTGKTGGTAKTGASRRTAKNKRREERKRARGKKGTIYEEEYLVQSVGRLIERLNQTKPDAVRVVEGLCRRNMREQAHQIQKNFVEVLDLLKANVKEIYSISEKDRERVNENGEVYYIPEIPVPEIHDFPKSHIVDF

Tests used:
[1] = target: Elp1–KR9A–GFP (GFP-tagged Elp1 basic region mutant, nine basic residues to alanine) (S. cerevisiae) (UniProt Q06706); experiment: co-IP; GFP–Trap beads precipitate genomic GFP-tagged Elp1 from lysate of yeast that also carry a plasmid copy of 6HA-tagged Elp1; anti-HA blot; done in strains with ELP5 and repeated in elp5Δ strains; 150 mM NaCl, 4°C
[2] = target: T1, Elp1–GFP (GFP-tagged wild-type Elp1, largest subunit of the Elongator complex) (S. cerevisiae); experiment: as above
[3] = target: Elp1–KR9A–GFP (GFP-tagged Elp1 basic region mutant, nine basic residues to alanine) (S. cerevisiae) (UniProt Q06706); experiment: co-IP; GFP–Trap beads precipitate the GFP-tagged protein from yeast lysate; HA-tagged partners found by anti-HA blot and measured by densitometry; lysis buffer 50 mM HEPES-KOH pH 7.5, 150 mM NaCl, 2 mM MgCl2, 0.1% Triton X-100; 4°C

binding [1] | binding [2] | binding [3] | Molecule
binds | binds |  | Elp1–KR9A–6HA (6HA-tagged Elp1 basic region mutant from YCplac111–elp1–KR9A–6HA) (from UniProt Q06706)
 |  | binds | B1
binds |  |  | B2
